Values from PubChem BioAssay AID602196 (INSERM, 2012)
Here is an unselected part of about 23,000 deposited reagents. 455 of all reagents (2%) count as active. 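Active includes both protection and sensitisation; some change values fall well beyond the stated -50 to +50 range.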 Not all columns of the deposit are shown. The record does not give: the amount of reagent.

Aim: 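Knock-downs that protect lung cancer cells from cisplatin or sensitise them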
System: human A549 lung cancer cells
Reagents: siRNA pair against human genes
Time to read-out: 48 h transfection before cisplatin; time from cisplatin to read-out not stated
Treatment: cisplatin at a dose killing half of control-siRNA cells; exact dose and duration not given
Read-out: 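Shift in cisplatin death relative to control siRNA, from -50 (all cells die) to +50 (no cells die); siRNAs harmful on their own scored 0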
Reading the numbers: two-siRNA summed score (-2 to +2): higher = both siRNAs protect from cisplatin killing; -2 means both sensitise; mean protection from cisplatin (shift in death): higher = protection from cisplatin killing
Call rule: 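Each siRNA scores 0 if harmful alone by LDH or WST-1, otherwise +1 if it reduces and -1 if it increases cisplatin killing; a gene is active when both siRNAs agree (sum +2 or -2)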
Calls: active = both siRNAs shift cisplatin killing the same way; inactive = no consistent shift, or siRNA harmful alone

With PCGF6, what was measured?
two-siRNA summed score (-2 to +2): 0; mean protection from cisplatin (shift in death) (%): 0.1; activity call: inactive

For METTL1, what does the deposit list?
two-siRNA summed score (-2 to +2): -1; mean protection from cisplatin (shift in death) (%): -7.6; activity call: inactive

Which result is listed for ELN?
two-siRNA summed score (-2 to +2): 0; mean protection from cisplatin (shift in death) (%): 24.2; activity call: inactive

What is on record for SCG3?
two-siRNA summed score (-2 to +2): 0; mean protection from cisplatin (shift in death) (%): -1.6; activity call: inactive

Not a retest: 2 of the entries above.
METTL1: two-siRNA summed score (-2 to +2) = -1; mean protection from cisplatin (shift in death) (%) = -7.6; activity call = inactive
ELN: two-siRNA summed score (-2 to +2) = 0; mean protection from cisplatin (shift in death) (%) = 24.2; activity call = inactive

Continued:
What did the screen give for SLC39A12?
two-siRNA summed score (-2 to +2): 0; mean protection from cisplatin (shift in death) (%): 1.3; activity call: inactive

Which result is listed for IRAK4?
two-siRNA summed score (-2 to +2): 0; mean protection from cisplatin (shift in death) (%): 4.5; activity call: inactive

How did the screen score NUTM2D?
two-siRNA summed score (-2 to +2): 0; mean protection from cisplatin (shift in death) (%): 1.4; activity call: inactive

For P2RY4, what does the deposit list?
two-siRNA summed score (-2 to +2): 1; mean protection from cisplatin (shift in death) (%): 7; activity call: inactive

With LOC440010, what does the deposit list?
two-siRNA summed score (-2 to +2): 1; mean protection from cisplatin (shift in death) (%): 11.1; activity call: inactive

How did the screen score HJV?
two-siRNA summed score (-2 to +2): 0; mean protection from cisplatin (shift in death) (%): 9.6; activity call: inactive

What is on record for OXER1?
two-siRNA summed score (-2 to +2): 0; mean protection from cisplatin (shift in death) (%): 8.6; activity call: inactive

How did the screen score LINC02609?
two-siRNA summed score (-2 to +2): 1; mean protection from cisplatin (shift in death) (%): 5.1; activity call: inactive
